Experimental data as given in ChEMBL document CHEMBL4316593 (Eur J Med Chem, 2019).
The source gives many values for each of these; only a part stands here.

Assays:
Assay type in all cases: cell-based
Conditions in all cases: U-87MG ATCC
[1] = Inhibition of RTK/PI3K/AKT/mTOR signaling in human U87 cells assessed as up regulation of zinc finger MYM-type containing 3 gene expression at cytotoxic IC50 measured after 48 hrs relative to control
[2] = Inhibition of RTK/PI3K/AKT/mTOR signaling in human U87 cells assessed as down regulation of PHF20L1 gene expression at cytotoxic IC50 measured after 48 hrs relative to control
[3] = Inhibition of RTK/PI3K/AKT/mTOR signaling in human U87 cells assessed as down regulation of NR4A2 gene expression at cytotoxic IC50 measured after 48 hrs relative to control
[4] = Inhibition of RTK/PI3K/AKT/mTOR signaling in human U87 cells assessed as down regulation of KLHL11 gene expression at cytotoxic IC50 measured after 48 hrs relative to control
[5] = Inhibition of RTK/PI3K/AKT/mTOR signaling in human U87 cells assessed as up regulation of synaptogyrin 1 gene expression at cytotoxic IC50 measured after 48 hrs relative to control
[6] = Inhibition of RTK/PI3K/AKT/mTOR signaling in human U87 cells assessed as up regulation of STEAP3 gene expression at cytotoxic IC50 measured after 48 hrs relative to control
[7] = Inhibition of RTK/PI3K/AKT/mTOR signaling in human U87 cells assessed as down regulation of USP53 gene expression at cytotoxic IC50 measured after 48 hrs relative to control
[8] = Inhibition of RTK/PI3K/AKT/mTOR signaling in human U87 cells assessed as up regulation of family with sequence similarity 117 member B gene expression at cytotoxic IC50 measured after 48 hrs relative to control
[9] = Inhibition of RTK/PI3K/AKT/mTOR signaling in human U87 cells assessed as up regulation of membrane associated guanylate kinase, WW and PDZ domain containing 1 gene expression at cytotoxic IC50 measured after 48 hrs relative to control
[10] = Inhibition of RTK/PI3K/AKT/mTOR signaling in human U87 cells assessed as up regulation of transmembrane protein 161A gene expression at cytotoxic IC50 measured after 48 hrs relative to control
[11] = Inhibition of RTK/PI3K/AKT/mTOR signaling in human U87 cells assessed as down regulation of RBM42 gene expression at cytotoxic IC50 measured after 48 hrs relative to control
[12] = Inhibition of RTK/PI3K/AKT/mTOR signaling in human U87 cells assessed as down regulation of NMU gene expression at cytotoxic IC50 measured after 48 hrs relative to control
[13] = Inhibition of RTK/PI3K/AKT/mTOR signaling in human U87 cells assessed as down regulation of NFE2L2 gene expression at cytotoxic IC50 measured after 48 hrs relative to control
[14] = Inhibition of RTK/PI3K/AKT/mTOR signaling in human U87 cells assessed as up regulation of formin like 2 gene expression at cytotoxic IC50 measured after 48 hrs relative to control
[15] = Inhibition of RTK/PI3K/AKT/mTOR signaling in human U87 cells assessed as down regulation of PI4K2A gene expression at cytotoxic IC50 measured after 48 hrs relative to control
[16] = Inhibition of RTK/PI3K/AKT/mTOR signaling in human U87 cells assessed as up regulation of peptidase M20 domain containing 2 gene expression at cytotoxic IC50 measured after 48 hrs relative to control
[17] = Inhibition of RTK/PI3K/AKT/mTOR signaling in human U87 cells assessed as down regulation of PSMA7 gene expression at cytotoxic IC50 measured after 48 hrs relative to control
[18] = Inhibition of RTK/PI3K/AKT/mTOR signaling in human U87 cells assessed as up regulation of YEATS domain containing 2 gene expression at cytotoxic IC50 measured after 48 hrs relative to control
[19] = Inhibition of RTK/PI3K/AKT/mTOR signaling in human U87 cells assessed as up regulation of aldo-keto reductase family 1 member A1 gene expression at cytotoxic IC50 measured after 48 hrs relative to control
[20] = Inhibition of RTK/PI3K/AKT/mTOR signaling in human U87 cells assessed as down regulation of ME1 gene expression at cytotoxic IC50 measured after 48 hrs relative to control
[21] = Inhibition of RTK/PI3K/AKT/mTOR signaling in human U87 cells assessed as up regulation of SLC2A3 gene expression at cytotoxic IC50 measured after 48 hrs relative to control
[22] = Inhibition of RTK/PI3K/AKT/mTOR signaling in human U87 cells assessed as down regulation of STX16 gene expression at cytotoxic IC50 measured after 48 hrs relative to control
[23] = Inhibition of RTK/PI3K/AKT/mTOR signaling in human U87 cells assessed as down regulation of PCNX2 gene expression at cytotoxic IC50 measured after 48 hrs relative to control
[24] = Inhibition of RTK/PI3K/AKT/mTOR signaling in human U87 cells assessed as up regulation of CD44 molecule (Indian blood group) gene expression at cytotoxic IC50 measured after 48 hrs relative to control
[25] = Inhibition of RTK/PI3K/AKT/mTOR signaling in human U87 cells assessed as up regulation of glucosidase alpha, acid gene expression at cytotoxic IC50 measured after 48 hrs relative to control
[26] = Inhibition of RTK/PI3K/AKT/mTOR signaling in human U87 cells assessed as down regulation of DSCC1 gene expression at cytotoxic IC50 measured after 48 hrs relative to control
[27] = Inhibition of RTK/PI3K/AKT/mTOR signaling in human U87 cells assessed as up regulation of GGA1 gene expression at cytotoxic IC50 measured after 48 hrs relative to control
[28] = Inhibition of RTK/PI3K/AKT/mTOR signaling in human U87 cells assessed as up regulation of UFM1 gene expression at cytotoxic IC50 measured after 48 hrs relative to control
[29] = Inhibition of RTK/PI3K/AKT/mTOR signaling in human U87 cells assessed as down regulation of ZNF697 gene expression at cytotoxic IC50 measured after 48 hrs relative to control
[30] = Inhibition of RTK/PI3K/AKT/mTOR signaling in human U87 cells assessed as down regulation of SYAP1 gene expression at cytotoxic IC50 measured after 48 hrs relative to control
[31] = Inhibition of RTK/PI3K/AKT/mTOR signaling in human U87 cells assessed as down regulation of RAB5A gene expression at cytotoxic IC50 measured after 48 hrs relative to control
[32] = Inhibition of RTK/PI3K/AKT/mTOR signaling in human U87 cells assessed as down regulation of CDK6 gene expression at cytotoxic IC50 measured after 48 hrs relative to control

CC(=O)C(=NNc1ccccc1C#N)C(C)=O gave a log2FC [1] of 1.32, a log2FC [2] of -0.561 and a log2FC [3] of -1.73. The log2FC [4] was -1.03, the log2FC [5] was 1.14 and the log2FC [6] was 1.7. It also gave a log2FC [7] of -1, a log2FC [8] of 0.896 and a log2FC [9] of 1.29. The log2FC [10] was 0.649, the log2FC [11] was -0.717 and the log2FC [12] was -1.26. For the same molecule, the log2FC [13] was -0.89, the log2FC [14] was 0.902 and the log2FC [15] was -0.488. For the same molecule, the log2FC [16] was 1.3, the log2FC [17] was -0.949 and the log2FC [18] was 0.768. For the same molecule, the log2FC [19] was 0.742, the log2FC [20] was -0.667 and the log2FC [21] was 3.09. It also gave a log2FC [22] of -0.898, a log2FC [23] of -0.747 and a log2FC [24] of 0.887. For the same molecule, the log2FC [25] was 0.742, the log2FC [26] was -1.56 and the log2FC [27] was 0.531. The log2FC [28] was 0.523, the log2FC [29] was -3.09 and the log2FC [30] was -0.668. The log2FC [31] was -0.718 and the log2FC [32] was -0.639.
